# Publication PMC6696373 (Molecules, 2019)
# HELM strings list residues between dots; [ac] is acetyl, [am] amide, other brackets name non-standard units.
# Experiment: peptide made by a vendor
# Details: whole synthesis
substance,measurement,value
PEPTIDE1{W.G.A.P.S.L}$$$$V2.0,purity (crude or final not stated),90% purity
